From the supplement of paper PMC10849652
The list shows a part of the results.

Protein sequences, listed by entry. Tags and fused reporters are not part of them. Lines headed by an entry give the natural chain unless they say otherwise; changes in a name come on top.
UniProt Q9BX10: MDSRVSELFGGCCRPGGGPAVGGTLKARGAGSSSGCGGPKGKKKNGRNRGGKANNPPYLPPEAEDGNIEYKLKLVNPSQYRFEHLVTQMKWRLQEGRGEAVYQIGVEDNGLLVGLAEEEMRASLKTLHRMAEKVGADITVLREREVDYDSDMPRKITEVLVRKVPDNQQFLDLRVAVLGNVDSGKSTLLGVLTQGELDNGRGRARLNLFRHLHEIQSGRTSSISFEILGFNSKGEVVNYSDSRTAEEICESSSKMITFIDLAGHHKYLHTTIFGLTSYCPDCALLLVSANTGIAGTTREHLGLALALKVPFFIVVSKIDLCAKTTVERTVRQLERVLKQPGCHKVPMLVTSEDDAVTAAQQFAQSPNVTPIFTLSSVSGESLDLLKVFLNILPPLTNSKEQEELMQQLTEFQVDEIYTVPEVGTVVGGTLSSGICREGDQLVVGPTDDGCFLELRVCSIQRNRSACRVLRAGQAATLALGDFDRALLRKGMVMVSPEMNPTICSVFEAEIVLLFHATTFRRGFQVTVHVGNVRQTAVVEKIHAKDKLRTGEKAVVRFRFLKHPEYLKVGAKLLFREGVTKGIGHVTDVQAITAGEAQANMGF
UniProt Q8WUI4: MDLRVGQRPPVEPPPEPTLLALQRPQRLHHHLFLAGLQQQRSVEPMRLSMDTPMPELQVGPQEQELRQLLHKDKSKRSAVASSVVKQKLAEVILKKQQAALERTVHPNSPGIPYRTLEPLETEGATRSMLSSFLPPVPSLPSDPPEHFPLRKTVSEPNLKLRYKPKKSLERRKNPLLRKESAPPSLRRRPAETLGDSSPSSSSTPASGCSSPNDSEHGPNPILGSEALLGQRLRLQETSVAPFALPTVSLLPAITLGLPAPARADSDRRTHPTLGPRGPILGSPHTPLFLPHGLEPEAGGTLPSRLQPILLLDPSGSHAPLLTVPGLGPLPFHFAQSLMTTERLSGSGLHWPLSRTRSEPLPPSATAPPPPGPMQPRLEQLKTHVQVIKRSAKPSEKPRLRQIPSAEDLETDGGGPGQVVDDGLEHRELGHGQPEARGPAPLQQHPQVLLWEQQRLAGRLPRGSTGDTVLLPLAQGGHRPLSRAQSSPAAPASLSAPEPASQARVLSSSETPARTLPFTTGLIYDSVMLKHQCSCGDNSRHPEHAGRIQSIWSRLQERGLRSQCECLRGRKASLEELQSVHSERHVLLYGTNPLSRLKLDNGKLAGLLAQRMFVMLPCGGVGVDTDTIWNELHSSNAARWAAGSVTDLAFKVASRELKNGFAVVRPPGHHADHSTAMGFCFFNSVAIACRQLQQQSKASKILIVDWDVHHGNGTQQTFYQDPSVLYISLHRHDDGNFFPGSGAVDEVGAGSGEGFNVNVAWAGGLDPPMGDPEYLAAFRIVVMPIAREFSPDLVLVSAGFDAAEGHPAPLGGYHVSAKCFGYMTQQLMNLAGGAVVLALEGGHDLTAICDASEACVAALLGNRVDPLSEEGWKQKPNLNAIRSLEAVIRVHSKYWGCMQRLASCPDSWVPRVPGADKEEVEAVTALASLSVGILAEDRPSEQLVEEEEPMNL
UniProt P16403, whole entry, looked up: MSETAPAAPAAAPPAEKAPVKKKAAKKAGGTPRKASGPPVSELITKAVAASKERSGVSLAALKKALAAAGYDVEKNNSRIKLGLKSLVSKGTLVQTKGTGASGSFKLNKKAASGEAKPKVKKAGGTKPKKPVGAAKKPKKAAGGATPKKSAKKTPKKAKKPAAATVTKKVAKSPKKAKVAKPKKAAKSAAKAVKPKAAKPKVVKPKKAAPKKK
UniProt O15488: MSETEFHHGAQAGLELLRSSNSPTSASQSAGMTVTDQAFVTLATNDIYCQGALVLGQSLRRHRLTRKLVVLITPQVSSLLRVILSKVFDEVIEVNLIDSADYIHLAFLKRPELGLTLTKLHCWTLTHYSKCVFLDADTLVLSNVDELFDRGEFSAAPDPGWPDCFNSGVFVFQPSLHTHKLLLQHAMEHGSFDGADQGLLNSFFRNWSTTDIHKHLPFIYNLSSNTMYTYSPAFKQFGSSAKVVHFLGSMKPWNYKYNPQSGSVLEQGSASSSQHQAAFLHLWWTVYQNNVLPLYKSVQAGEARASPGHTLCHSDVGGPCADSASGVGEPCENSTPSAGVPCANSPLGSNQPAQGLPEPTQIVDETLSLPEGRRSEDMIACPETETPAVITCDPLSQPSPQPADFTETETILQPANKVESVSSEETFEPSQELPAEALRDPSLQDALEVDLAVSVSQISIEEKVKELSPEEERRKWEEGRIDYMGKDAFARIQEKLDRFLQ
UniProt P28161: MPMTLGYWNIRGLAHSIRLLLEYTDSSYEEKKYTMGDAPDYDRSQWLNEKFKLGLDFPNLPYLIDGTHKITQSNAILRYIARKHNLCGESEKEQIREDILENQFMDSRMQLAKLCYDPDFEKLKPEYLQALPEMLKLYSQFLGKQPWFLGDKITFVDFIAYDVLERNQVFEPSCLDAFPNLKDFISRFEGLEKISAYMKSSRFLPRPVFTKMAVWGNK
UniProt Q8N442: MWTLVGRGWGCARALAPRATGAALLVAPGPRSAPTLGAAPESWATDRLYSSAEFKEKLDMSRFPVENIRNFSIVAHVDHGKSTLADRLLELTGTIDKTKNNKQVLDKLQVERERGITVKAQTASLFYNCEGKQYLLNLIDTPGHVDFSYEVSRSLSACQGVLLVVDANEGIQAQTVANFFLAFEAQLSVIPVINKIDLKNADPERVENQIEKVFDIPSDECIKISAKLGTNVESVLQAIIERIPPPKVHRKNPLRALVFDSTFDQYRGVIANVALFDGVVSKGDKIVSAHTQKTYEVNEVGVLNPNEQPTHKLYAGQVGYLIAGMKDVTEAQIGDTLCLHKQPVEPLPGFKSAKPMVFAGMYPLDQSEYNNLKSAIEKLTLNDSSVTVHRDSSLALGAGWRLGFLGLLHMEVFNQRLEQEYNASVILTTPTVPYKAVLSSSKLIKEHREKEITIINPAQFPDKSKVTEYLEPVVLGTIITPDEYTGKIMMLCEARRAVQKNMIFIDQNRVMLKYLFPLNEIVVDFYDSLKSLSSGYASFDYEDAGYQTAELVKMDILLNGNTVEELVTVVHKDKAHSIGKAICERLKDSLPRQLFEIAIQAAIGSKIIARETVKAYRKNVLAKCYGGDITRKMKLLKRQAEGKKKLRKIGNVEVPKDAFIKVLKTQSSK
UniProt Q9Y5Q9: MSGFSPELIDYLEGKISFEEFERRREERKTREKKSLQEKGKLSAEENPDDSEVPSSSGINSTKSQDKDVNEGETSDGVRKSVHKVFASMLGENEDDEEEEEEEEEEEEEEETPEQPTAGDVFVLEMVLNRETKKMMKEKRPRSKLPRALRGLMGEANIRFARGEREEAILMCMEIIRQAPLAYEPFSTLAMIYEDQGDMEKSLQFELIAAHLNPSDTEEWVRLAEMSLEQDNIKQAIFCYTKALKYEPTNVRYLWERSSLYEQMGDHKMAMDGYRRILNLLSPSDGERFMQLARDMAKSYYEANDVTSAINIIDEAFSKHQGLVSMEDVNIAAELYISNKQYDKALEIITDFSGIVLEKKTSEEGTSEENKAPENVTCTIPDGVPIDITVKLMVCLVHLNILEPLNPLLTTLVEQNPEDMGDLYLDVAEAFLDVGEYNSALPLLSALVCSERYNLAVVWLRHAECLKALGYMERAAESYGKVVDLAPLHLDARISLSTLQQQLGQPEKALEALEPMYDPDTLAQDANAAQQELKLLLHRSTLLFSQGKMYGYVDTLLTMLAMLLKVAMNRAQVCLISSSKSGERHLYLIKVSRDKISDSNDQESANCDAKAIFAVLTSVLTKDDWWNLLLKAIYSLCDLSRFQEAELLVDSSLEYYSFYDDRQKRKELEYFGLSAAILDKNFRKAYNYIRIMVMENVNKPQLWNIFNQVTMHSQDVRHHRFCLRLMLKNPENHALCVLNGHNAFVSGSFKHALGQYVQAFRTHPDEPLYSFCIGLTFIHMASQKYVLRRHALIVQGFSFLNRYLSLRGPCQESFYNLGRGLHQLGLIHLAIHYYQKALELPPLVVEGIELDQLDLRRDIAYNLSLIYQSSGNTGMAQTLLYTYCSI
UniProt P48637: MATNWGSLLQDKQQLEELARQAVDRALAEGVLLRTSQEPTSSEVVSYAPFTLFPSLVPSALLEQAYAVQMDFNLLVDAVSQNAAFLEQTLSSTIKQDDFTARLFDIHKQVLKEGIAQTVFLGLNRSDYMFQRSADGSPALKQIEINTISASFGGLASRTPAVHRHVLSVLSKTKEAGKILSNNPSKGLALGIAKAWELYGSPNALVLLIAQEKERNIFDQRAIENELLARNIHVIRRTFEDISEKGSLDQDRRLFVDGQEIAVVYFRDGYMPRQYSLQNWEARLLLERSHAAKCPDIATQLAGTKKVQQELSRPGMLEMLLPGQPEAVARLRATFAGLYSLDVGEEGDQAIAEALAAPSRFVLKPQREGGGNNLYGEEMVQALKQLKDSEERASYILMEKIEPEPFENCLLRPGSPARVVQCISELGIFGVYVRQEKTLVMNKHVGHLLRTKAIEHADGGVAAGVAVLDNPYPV
UniProt P56524: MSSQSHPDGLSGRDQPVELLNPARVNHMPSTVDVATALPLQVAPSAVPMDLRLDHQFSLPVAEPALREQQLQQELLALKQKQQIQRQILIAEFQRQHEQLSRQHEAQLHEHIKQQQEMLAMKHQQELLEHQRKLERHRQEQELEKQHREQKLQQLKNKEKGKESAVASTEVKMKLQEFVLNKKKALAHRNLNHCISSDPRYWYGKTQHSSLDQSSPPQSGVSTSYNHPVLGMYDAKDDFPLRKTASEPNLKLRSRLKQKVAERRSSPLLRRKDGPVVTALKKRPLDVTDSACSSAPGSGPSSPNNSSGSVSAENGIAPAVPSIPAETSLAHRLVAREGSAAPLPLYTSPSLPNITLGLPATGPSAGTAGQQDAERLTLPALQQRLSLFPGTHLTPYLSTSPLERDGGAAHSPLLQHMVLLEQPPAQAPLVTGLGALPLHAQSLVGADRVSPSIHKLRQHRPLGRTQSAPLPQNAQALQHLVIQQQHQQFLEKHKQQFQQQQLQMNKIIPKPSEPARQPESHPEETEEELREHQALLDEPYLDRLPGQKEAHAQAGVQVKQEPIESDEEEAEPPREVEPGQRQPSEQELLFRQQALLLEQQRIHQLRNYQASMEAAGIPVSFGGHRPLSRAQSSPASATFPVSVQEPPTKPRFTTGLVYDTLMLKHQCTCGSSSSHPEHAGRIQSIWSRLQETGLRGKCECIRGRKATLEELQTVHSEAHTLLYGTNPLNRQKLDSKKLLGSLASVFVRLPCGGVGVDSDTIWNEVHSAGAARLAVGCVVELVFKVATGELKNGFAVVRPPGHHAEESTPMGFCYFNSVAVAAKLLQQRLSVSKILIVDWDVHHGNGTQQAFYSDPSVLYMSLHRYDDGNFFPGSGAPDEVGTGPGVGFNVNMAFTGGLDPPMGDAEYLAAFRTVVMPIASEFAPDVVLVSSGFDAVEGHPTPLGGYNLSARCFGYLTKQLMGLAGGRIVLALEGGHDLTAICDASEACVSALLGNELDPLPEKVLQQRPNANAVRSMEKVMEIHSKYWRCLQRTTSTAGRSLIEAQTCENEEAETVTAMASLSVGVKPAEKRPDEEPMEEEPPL
UniProt Q9UBQ7: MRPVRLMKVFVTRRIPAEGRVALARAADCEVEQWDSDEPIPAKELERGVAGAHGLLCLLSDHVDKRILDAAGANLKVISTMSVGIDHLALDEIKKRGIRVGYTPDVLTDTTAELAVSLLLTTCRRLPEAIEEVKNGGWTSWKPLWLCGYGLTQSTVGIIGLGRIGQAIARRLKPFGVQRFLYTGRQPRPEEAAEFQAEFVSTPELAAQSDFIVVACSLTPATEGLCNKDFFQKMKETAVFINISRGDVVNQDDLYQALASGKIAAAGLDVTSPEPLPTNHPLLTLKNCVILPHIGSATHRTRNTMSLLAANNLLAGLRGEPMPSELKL
UniProt Q92769, whole entry, looked up: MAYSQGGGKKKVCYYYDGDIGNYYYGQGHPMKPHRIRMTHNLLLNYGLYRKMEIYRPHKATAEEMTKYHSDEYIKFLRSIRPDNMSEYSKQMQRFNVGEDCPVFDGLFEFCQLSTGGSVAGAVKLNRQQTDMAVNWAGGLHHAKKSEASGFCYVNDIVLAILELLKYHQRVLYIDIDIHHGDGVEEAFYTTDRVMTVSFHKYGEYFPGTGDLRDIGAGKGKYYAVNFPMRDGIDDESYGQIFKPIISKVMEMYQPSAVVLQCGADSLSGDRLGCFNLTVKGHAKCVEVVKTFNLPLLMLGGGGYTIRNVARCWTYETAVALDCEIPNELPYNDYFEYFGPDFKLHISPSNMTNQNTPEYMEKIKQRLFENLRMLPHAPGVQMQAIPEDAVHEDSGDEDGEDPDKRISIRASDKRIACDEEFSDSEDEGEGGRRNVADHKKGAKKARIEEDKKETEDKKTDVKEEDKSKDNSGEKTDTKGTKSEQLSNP
UniProt P02100: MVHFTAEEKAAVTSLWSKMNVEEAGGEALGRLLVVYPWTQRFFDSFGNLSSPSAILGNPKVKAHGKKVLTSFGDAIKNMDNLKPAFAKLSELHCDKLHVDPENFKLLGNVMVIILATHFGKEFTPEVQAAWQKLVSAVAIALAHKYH

Each target was assayed with CC(C)(C)Cn1c(N)nc2ccc(-c3[nH]c(C(C)(C)C)nc3-c3ccc(F)cc3)nc21 [ralimetinib] (assay: log2 fold change, soluble protein after heating vs DMSO (PISA); higher = thermal stabilisation; K562 lysate, 10 uM; active = over 0.2 and 3.5 SD of the protein, either way, in both replicates (recomputed)).
Method in brief: (§1)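 Thermal stability, expressed as log-two fold change relative to solvent controls, is given from duplicates. Crude K562 extract in PBS pH 7.4 with 1 mM MgCl2, at 1 mg/mL protein, was treated with 10 μM compound for 30 min and heated in aliquots for 3 min across 48°C-58°C. After pooling, adjustment to 0.5% NP-40 at 4°C and centrifugation at 21,000xg for 90 min, supernatant protein was measured by TMTpro 16plex LC-MS/MS with channel sums equalised.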

log2 fold change, inactive:
GYPA (UniProt P02724) -0.052, GTPBP2 (UniProt Q9BX10) 0.042, HDAC7 isoform 5 (UniProt Q8WUI4) 0.003, H1-2 (UniProt P16403) -0.026, GRB10 (UniProt Q13322) -0.006, GSTM4 (UniProt Q03013) -0.013, HDHD5 (UniProt Q9BXW7) 0, GYG2 (UniProt O15488) -0.012, HAUS7 isoform 2 (UniProt Q99871) -0.002, HDGFL2 isoform 2 (UniProt Q7Z4V5) -0.01, GSTM2 (UniProt P28161) -0.006, GTSF1 (UniProt Q8WW33) -0.008, H1FX (UniProt Q92522) -0.025, GUF1 (UniProt Q8N442) 0.115, GTF3C6 (UniProt Q969F1) 0, GTF3C3 (UniProt Q9Y5Q9) 0.027, GSTM3 (UniProt P21266) -0.065, HAT1 (UniProt O14929) 0.021, GRSF1 (UniProt Q12849) 0.014, GSS (UniProt P48637) 0.009, HBD (UniProt P02042) -0.016, HDAC4 (UniProt P56524) 0.036, GTF3A (UniProt Q92664) -0.007, GTPBP4 (UniProt Q9BZE4) 0.008, GRHPR (UniProt Q9UBQ7) 0.017, HDAC2 (UniProt Q92769) -0.005, GSTZ1 (UniProt G3V4T6) 0.014, GTF2F1 (UniProt P35269) -0.026, HBE1 (UniProt P02100) -0.019, HADHA (UniProt P40939) 0.012, GTPBP1 (UniProt O00178) 0.025, GTF2H1 (UniProt P32780) 0.026

The targets below were run with CC(C)(O)CC(=O)NCCn1ccc2ncnc(Nc3ccc(Oc4cccc(C(F)(F)F)c4)c(Cl)c3)c21 in the same assay as above.
Method in brief: as §1

log2 fold change, inactive:
GYPA (UniProt P02724) 0.054, GTPBP2 (UniProt Q9BX10) -0.035, HDAC7 isoform 5 (UniProt Q8WUI4) -0.032, H1-2 (UniProt P16403) -0.011, GRB10 (UniProt Q13322) -0.032, GSTM4 (UniProt Q03013) -0.051, HDHD5 (UniProt Q9BXW7) 0.073, GYG2 (UniProt O15488) -0.038, HAUS7 isoform 2 (UniProt Q99871) -0.031, HDGFL2 isoform 2 (UniProt Q7Z4V5) -0.049, GSTM2 (UniProt P28161) -0.067, GTSF1 (UniProt Q8WW33) 0.044, H1FX (UniProt Q92522) -0.011, GUF1 (UniProt Q8N442) -0.061, GTF3C6 (UniProt Q969F1) -0.083, GTF3C3 (UniProt Q9Y5Q9) -0.005, GSTM3 (UniProt P21266) -0.017, HAT1 (UniProt O14929) -0.009, GRSF1 (UniProt Q12849) -0.043, GSS (UniProt P48637) -0.039, HBD (UniProt P02042) -0.039, HDAC4 (UniProt P56524) -0.013, GTF3A (UniProt Q92664) 0.06, GTPBP4 (UniProt Q9BZE4) -0.022, GRHPR (UniProt Q9UBQ7) -0.013, HDAC2 (UniProt Q92769) -0.029, GSTZ1 (UniProt G3V4T6) -0.019, GTF2F1 (UniProt P35269) -0.024, HBE1 (UniProt P02100) -0.021, HADHA (UniProt P40939) 0.05, GTPBP1 (UniProt O00178) -0.002, GTF2H1 (UniProt P32780) 0.003

The targets below were run with CC(C)C1=C2N=C(C=C(N2N=C1)NCC3=CC=CC=C3)NCCCCCCN in the same assay as above.
Method in brief: as §1

log2 fold change, inactive:
GYPA (UniProt P02724) -0.095, GTPBP2 (UniProt Q9BX10) 0, HDAC7 isoform 5 (UniProt Q8WUI4) 0.02, H1-2 (UniProt P16403) -0.014, GRB10 (UniProt Q13322) 0.014, GSTM4 (UniProt Q03013) -0.079, HDHD5 (UniProt Q9BXW7) -0.042, GYG2 (UniProt O15488) -0.024, HAUS7 isoform 2 (UniProt Q99871) 0.05, HDGFL2 isoform 2 (UniProt Q7Z4V5) 0.011, GSTM2 (UniProt P28161) -0.021, GTSF1 (UniProt Q8WW33) -0.025, H1FX (UniProt Q92522) 0.007, GUF1 (UniProt Q8N442) 0.047, GTF3C6 (UniProt Q969F1) 0.029, GTF3C3 (UniProt Q9Y5Q9) 0.02, GSTM3 (UniProt P21266) 0, HAT1 (UniProt O14929) 0.005, GRSF1 (UniProt Q12849) -0.025, GSS (UniProt P48637) 0.008, HBD (UniProt P02042) -0.065, HDAC4 (UniProt P56524) 0.033, GTF3A (UniProt Q92664) -0.044, GTPBP4 (UniProt Q9BZE4) 0, GRHPR (UniProt Q9UBQ7) -0.001, HDAC2 (UniProt Q92769) -0.001, GSTZ1 (UniProt G3V4T6) 0.004, GTF2F1 (UniProt P35269) -0.009, HBE1 (UniProt P02100) 0.016, HADHA (UniProt P40939) -0.042, GTPBP1 (UniProt O00178) 0.009, GTF2H1 (UniProt P32780) -0.005
